Reference: PubChem BioAssay AID652243 (Drosophila RNAi Screening Center, 2013)
Aim: 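Fly genes required for human androgen receptor driven transcription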 (primary screen). System: Drosophila S2R+ cells. Knock-down reagent: long dsRNA against Drosophila genes. Time to read-out: 72 h (48 h, then 24 h hormone). Conditions: synthetic androgen R1881 at 10 nM for 24 h. Measured: 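Per-well raw luminescence of the androgen-driven firefly reporter and of the Renilla control, two replicates each, without normalisation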. Direction: firefly reporter light: higher = more light from androgen-responsive reporter; Renilla control light: higher = more constitutive control signal (cell number, transfection). Call rule: 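Across duplicate plates, a knock-down whose log firefly/Renilla ratio shifted a set fold down or up from the GFP/LacZ control mean was a hit; the downward cut appears as both 1.5 and 3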. Meaning of the calls: active = hit: reporter lowered or raised; inactive = no hit.
The deposit covers about 24,000 reagents; shown is an unselected part of those that have a named target and a result. Of all reagents, 246 (1%) are marked active. 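Plates not normalised; calls are printed but the firefly/Renilla ratio behind them is not deposited; fold cut for lowering reported inconsistently.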 The raw values are shown without normalisation. Unmarked entries are inactive. The numbers tell different reagents against one gene apart. No sequences are given here. The record does not give: the amount of reagent.

nerfin-2 #1 → firefly reporter light, replicate 1: 1.14e5; firefly reporter light, replicate 2: 1.86e5; Renilla control light, replicate 1: 2.22e6; Renilla control light, replicate 2: 1.80e6
nerfin-2 #2 → firefly reporter light, replicate 1: 5.20e5; firefly reporter light, replicate 2: 6.41e5; Renilla control light, replicate 1: 5.24e5; Renilla control light, replicate 2: 9.80e5
CG32100 #1 → firefly reporter light, replicate 1: 1.92e5; firefly reporter light, replicate 2: 1.94e5; Renilla control light, replicate 1: 2.19e6; Renilla control light, replicate 2: 2.22e6
CG32100 #2 → firefly reporter light, replicate 1: 3.28e5; firefly reporter light, replicate 2: 1.93e5; Renilla control light, replicate 1: 2.32e6; Renilla control light, replicate 2: 2.16e6
Oatp74D #1 → firefly reporter light, replicate 1: 1.61e5; firefly reporter light, replicate 2: 1.53e5; Renilla control light, replicate 1: 1.98e5; Renilla control light, replicate 2: 1.42e5
Oatp74D #2 → firefly reporter light, replicate 1: 21544; firefly reporter light, replicate 2: 57892; Renilla control light, replicate 1: 2.84e5; Renilla control light, replicate 2: 3.25e5
CG4438 #1 → firefly reporter light, replicate 1: 1.09e5; firefly reporter light, replicate 2: 80192; Renilla control light, replicate 1: 1.59e6; Renilla control light, replicate 2: 1.10e6
CG4438 #2 → firefly reporter light, replicate 1: 1.02e6; firefly reporter light, replicate 2: 1.06e6; Renilla control light, replicate 1: 1.23e6; Renilla control light, replicate 2: 1.13e6
CG32091 → firefly reporter light, replicate 1: 1.41e5; firefly reporter light, replicate 2: 1.64e5; Renilla control light, replicate 1: 2.03e6; Renilla control light, replicate 2: 1.71e6
CG31776 → firefly reporter light, replicate 1: 1.22e5; firefly reporter light, replicate 2: 1.46e5; Renilla control light, replicate 1: 9.00e5; Renilla control light, replicate 2: 1.01e6
Msp300 #1 → firefly reporter light, replicate 1: 3.93e5; firefly reporter light, replicate 2: 1.19e5; Renilla control light, replicate 1: 9.54e5; Renilla control light, replicate 2: 6.24e5
Msp300 #2 → firefly reporter light, replicate 1: 1.02e5; firefly reporter light, replicate 2: 64343; Renilla control light, replicate 1: 2.97e5; Renilla control light, replicate 2: 3.17e5
Msp300 #3 → firefly reporter light, replicate 1: 1.42e5; firefly reporter light, replicate 2: 1.76e5; Renilla control light, replicate 1: 6.03e5; Renilla control light, replicate 2: 5.24e5
Msp300 #4 → firefly reporter light, replicate 1: 50877; firefly reporter light, replicate 2: 45774; Renilla control light, replicate 1: 7.42e5; Renilla control light, replicate 2: 7.77e5
Msp300 #5 → firefly reporter light, replicate 1: 3.98e5; firefly reporter light, replicate 2: 7.56e5; Renilla control light, replicate 1: 1.46e6; Renilla control light, replicate 2: 1.00e6
Msp300 #6 → firefly reporter light, replicate 1: 2.75e5; firefly reporter light, replicate 2: 1.41e5; Renilla control light, replicate 1: 1.81e6; Renilla control light, replicate 2: 1.22e6
Pdcd4 → firefly reporter light, replicate 1: 5.37e5; firefly reporter light, replicate 2: 4.44e5; Renilla control light, replicate 1: 3.49e6; Renilla control light, replicate 2: 3.82e6
CG11723 #1 → firefly reporter light, replicate 1: 9.78e5; firefly reporter light, replicate 2: 9.58e5; Renilla control light, replicate 1: 3.78e6; Renilla control light, replicate 2: 1.95e6
CG11723 #2 → firefly reporter light, replicate 1: 7.78e5; firefly reporter light, replicate 2: 9.05e5; Renilla control light, replicate 1: 8.50e5; Renilla control light, replicate 2: 8.09e5
CROT #1 → firefly reporter light, replicate 1: 36011; firefly reporter light, replicate 2: 26552; Renilla control light, replicate 1: 1.53e5; Renilla control light, replicate 2: 2.11e5
CROT #2 → firefly reporter light, replicate 1: 1.15e5; firefly reporter light, replicate 2: 96521; Renilla control light, replicate 1: 1.16e6; Renilla control light, replicate 2: 1.25e6
CROT #3 → firefly reporter light, replicate 1: 2.04e5; firefly reporter light, replicate 2: 1.78e5; Renilla control light, replicate 1: 3.58e5; Renilla control light, replicate 2: 6.79e5
